## Screening data

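A panel of P. falciparum strains inside erythrocytes is exposed to compounds for three days, then a DNA-binding dye reports the amount of parasite DNA. Each compound was titrated across a series from about 0.000037 to 29 µM. The number is the fitted AC50, the concentration giving a half-maximal change in signal; a lower value means higher potency, whether the curve shows a decrease or an increase. Calls follow the curve class and fit quality: every row here is inconclusive, covering signal-raising curves and weak, poorly fitted, partial or highest-dose-only inhibition curves.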

Values are in nM. Every entry below has the call inconclusive. Only part of the assay is shown, chiefly results filed as inconclusive. Potencies fitted to partial, single-point or poorly fitting curves are rough. Some entries filed as inconclusive have a full curve.

| structure | setting | potency (nM) | curve as filed |
|---|---|---|---|
| `CC(CN1c2ccccc2Sc2ccccc21)N(C)C` (stereo not drawn) | CP265 | 1778 | inhibitor, single point |
| `CC(CN1c2ccccc2Sc2ccccc21)N(C)C` (stereo not drawn) | SC27B | 3162 | inhibitor, single point |
| `CC(CN1c2ccccc2Sc2ccccc21)N(C)C` (stereo not drawn) | CP260 | 3548 | inhibitor, partial curve |
| `CC(CN1c2ccccc2Sc2ccccc21)N(C)C` (stereo not drawn) | CP305 | 239.3 | inhibitor, partial curve |
| `CC(CN1c2ccccc2Sc2ccccc21)N(C)C` (stereo not drawn) | CP215 | 13459 | inhibitor, single point |
| `CC(CN1c2ccccc2Sc2ccccc21)N(C)C` (stereo not drawn) | P93_24 | 3548 | inhibitor, single point |
| `CC(CN1c2ccccc2Sc2ccccc21)N(C)C` (stereo not drawn) | ATS95 | 1259 | inhibitor, partial curve |
| `CC(CN1c2ccccc2Sc2ccccc21)N(C)C` (stereo not drawn) | AS120 | 2818 | inhibitor, single point |
| `CC(CN1c2ccccc2Sc2ccccc21)N(C)C` (stereo not drawn) | CP203 | 1510 | inhibitor, partial curve |
| `CC(CN1c2ccccc2Sc2ccccc21)N(C)C` (stereo not drawn) | CP237 | 794.3 | inhibitor, full curve |
| `CC(CN1c2ccccc2Sc2ccccc21)N(C)C` (stereo not drawn) | AA1029 | 3548 | inhibitor, single point |
| `CC(CN1c2ccccc2Sc2ccccc21)N(C)C` (stereo not drawn) | GB4 | 1694 | inhibitor, partial curve |
| `CC(CN1c2ccccc2Sc2ccccc21)N(C)C` (stereo not drawn) | CP297 | 4776 | inhibitor, partial curve, poor fit |
| `CC(CN1c2ccccc2Sc2ccccc21)N(C)C` (stereo not drawn) | Dd2 | 1995 | inhibitor, single point |
| `c1cc(CN2CCCCC2)cc(OCCCNc2nc3ccccc3s2)c1` | 3D7 | 11220 | inhibitor, single point |
| `c1cc(CN2CCCCC2)cc(OCCCNc2nc3ccccc3s2)c1` | CP297 | 11995 | inhibitor, partial curve |
| `c1cc(CN2CCCCC2)cc(OCCCNc2nc3ccccc3s2)c1` | CP211 | 15101 | inhibitor, partial curve, poor fit |
| `c1cc(CN2CCCCC2)cc(OCCCNc2nc3ccccc3s2)c1` | CP215 | 15101 | inhibitor, single point |
| `c1cc(CN2CCCCC2)cc(OCCCNc2nc3ccccc3s2)c1` | DIV14 | 2686 | inhibitor, full curve |
| `c1cc(CN2CCCCC2)cc(OCCCNc2nc3ccccc3s2)c1` | HB3 | 10000 | inhibitor, partial curve |
| `c1cc(CN2CCCCC2)cc(OCCCNc2nc3ccccc3s2)c1` | CP203 | 19011 | inhibitor, single point |
| `c1cc(CN2CCCCC2)cc(OCCCNc2nc3ccccc3s2)c1` | CP194 | 13459 | inhibitor, single point |
| `c1cc(CN2CCCCC2)cc(OCCCNc2nc3ccccc3s2)c1` | CP305 | 7569 | inhibitor, partial curve, poor fit |
| `c1cc(CN2CCCCC2)cc(OCCCNc2nc3ccccc3s2)c1` | SC27B | 11220 | inhibitor, partial curve |
| `c1cc(CN2CCCCC2)cc(OCCCNc2nc3ccccc3s2)c1` | CP247 | 1259 | inhibitor, full curve, poor fit |
| `c1cc(CN2CCCCC2)cc(OCCCNc2nc3ccccc3s2)c1` | DIV17 | 13459 | inhibitor, partial curve |
| `c1cc(CN2CCCCC2)cc(OCCCNc2nc3ccccc3s2)c1` | PC49 | 3981 | inhibitor, partial curve |
| `c1cc(CN2CCCCC2)cc(OCCCNc2nc3ccccc3s2)c1` | CP252 | 8912 | inhibitor, partial curve |
| `c1cc(CN2CCCCC2)cc(OCCCNc2nc3ccccc3s2)c1` | CP201 | 21331 | inhibitor, single point |
| `c1cc(CN2CCCCC2)cc(OCCCNc2nc3ccccc3s2)c1` | PAD | 10000 | inhibitor, single point |
| `c1cc(CN2CCCCC2)cc(OCCCNc2nc3ccccc3s2)c1` | CP269 | 8492 | inhibitor, partial curve |
| `c1cc(CN2CCCCC2)cc(OCCCNc2nc3ccccc3s2)c1` | TAB113 | 12589 | inhibitor, single point |
| `c1cc(CN2CCCCC2)cc(OCCCNc2nc3ccccc3s2)c1` | ATS189 | 5623 | inhibitor, partial curve, poor fit |
| `c1cc(CN2CCCCC2)cc(OCCCNc2nc3ccccc3s2)c1` | CP185 | 446.7 | inhibitor, full curve |
| `c1cc(CN2CCCCC2)cc(OCCCNc2nc3ccccc3s2)c1` | N140 | 5623 | inhibitor, partial curve |
| `c1cc(CN2CCCCC2)cc(OCCCNc2nc3ccccc3s2)c1` | CP260 | 11220 | inhibitor, partial curve |
| `c1cc(CN2CCCCC2)cc(OCCCNc2nc3ccccc3s2)c1` | PC26 | 1694 | inhibitor, full curve |
| `c1cc(CN2CCCCC2)cc(OCCCNc2nc3ccccc3s2)c1` | CP191 | 4467 | inhibitor, partial curve |
| `c1cc(CN2CCCCC2)cc(OCCCNc2nc3ccccc3s2)c1` | PC15 | 10000 | inhibitor, partial curve |
| `c1cc(CN2CCCCC2)cc(OCCCNc2nc3ccccc3s2)c1` | CP329 | 16944 | inhibitor, single point |
| `c1cc(CN2CCCCC2)cc(OCCCNc2nc3ccccc3s2)c1` | CP192 | 16944 | inhibitor, single point |
| `COc1ccc(CCN(C)CCCC(C#N)(c2cc(OC)c(OC)c(OC)c2)C(C)C)cc1OC` (stereo not drawn) | CP269 | 11995 | inhibitor, partial curve |
| `COc1ccc(CCN(C)CCCC(C#N)(c2cc(OC)c(OC)c(OC)c2)C(C)C)cc1OC` (stereo not drawn) | CP335 | 3381 | inhibitor, full curve |
| `COc1ccc(CCN(C)CCCC(C#N)(c2cc(OC)c(OC)c(OC)c2)C(C)C)cc1OC` (stereo not drawn) | PAD | 10000 | inhibitor, single point |
| `COc1ccc(CCN(C)CCCC(C#N)(c2cc(OC)c(OC)c(OC)c2)C(C)C)cc1OC` (stereo not drawn) | TAB113 | 7943 | inhibitor, partial curve |
| `COc1ccc(CCN(C)CCCC(C#N)(c2cc(OC)c(OC)c(OC)c2)C(C)C)cc1OC` (stereo not drawn) | TAB165 | 5012 | inhibitor, partial curve |
| `COc1ccc(CCN(C)CCCC(C#N)(c2cc(OC)c(OC)c(OC)c2)C(C)C)cc1OC` (stereo not drawn) | SC27B | 6310 | inhibitor, partial curve |
| `COc1ccc(CCN(C)CCCC(C#N)(c2cc(OC)c(OC)c(OC)c2)C(C)C)cc1OC` (stereo not drawn) | CP291 | 6012 | inhibitor, partial curve |
| `COc1ccc(CCN(C)CCCC(C#N)(c2cc(OC)c(OC)c(OC)c2)C(C)C)cc1OC` (stereo not drawn) | CP262 | 4776 | inhibitor, partial curve |
| `COc1ccc(CCN(C)CCCC(C#N)(c2cc(OC)c(OC)c(OC)c2)C(C)C)cc1OC` (stereo not drawn) | CP315 | 19011 | inhibitor, single point |
| `COc1ccc(CCN(C)CCCC(C#N)(c2cc(OC)c(OC)c(OC)c2)C(C)C)cc1OC` (stereo not drawn) | CP252 | 12589 | inhibitor, partial curve |
| `COc1ccc(CCN(C)CCCC(C#N)(c2cc(OC)c(OC)c(OC)c2)C(C)C)cc1OC` (stereo not drawn) | CP305 | 13459 | inhibitor, single point |

Data taken from PubChem BioAssay AID504749, deposited by NCATS (2011).